This note sets out measurements from PMC6404607.

Chains of the proteins cited; added tags and fusions are not shown. Residues count along the entry.
UniProt Q8MSV2, 223-590: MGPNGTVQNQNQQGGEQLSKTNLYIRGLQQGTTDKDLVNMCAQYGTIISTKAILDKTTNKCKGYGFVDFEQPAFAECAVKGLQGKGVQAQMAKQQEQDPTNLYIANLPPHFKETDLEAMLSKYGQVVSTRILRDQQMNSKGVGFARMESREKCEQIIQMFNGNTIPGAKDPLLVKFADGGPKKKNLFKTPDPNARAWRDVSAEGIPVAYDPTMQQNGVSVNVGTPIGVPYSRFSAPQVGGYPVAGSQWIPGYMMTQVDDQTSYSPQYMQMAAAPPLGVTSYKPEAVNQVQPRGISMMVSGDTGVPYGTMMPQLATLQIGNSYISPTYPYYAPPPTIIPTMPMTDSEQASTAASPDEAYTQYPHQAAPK
UniProt Q8MSV2, 223-590 Y286A/F288A/F291A/V364A/F366A/R368A: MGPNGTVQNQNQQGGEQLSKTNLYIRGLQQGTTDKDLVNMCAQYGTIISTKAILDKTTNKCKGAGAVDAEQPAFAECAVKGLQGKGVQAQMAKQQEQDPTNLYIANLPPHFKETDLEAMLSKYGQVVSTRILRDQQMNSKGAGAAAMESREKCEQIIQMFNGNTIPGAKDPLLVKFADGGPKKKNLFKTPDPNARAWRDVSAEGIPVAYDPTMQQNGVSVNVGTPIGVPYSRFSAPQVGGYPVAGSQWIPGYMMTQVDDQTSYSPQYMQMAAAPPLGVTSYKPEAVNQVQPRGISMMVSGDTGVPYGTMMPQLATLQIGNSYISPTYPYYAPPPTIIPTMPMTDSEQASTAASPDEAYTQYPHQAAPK

For one data set, the target named is Shep E (wild type) (UniProt Q8MSV2). As to the kind of experiment: EMSA. The following applies: 10 ug tRNA competitor, 47 pmol protein, 10 pmol probe; EMSA: 10% glycerol, 20 mM NaCl, 60 mM KCl, 20 mM HEPES pH 7.5, 10 ug tRNA; probe heated 95 C 2 min and ice-cooled; 30 min on ice with protein; 6% GTG gel at 4 C; recombinant protein; protein details: His (stated N-terminal, pET101); label: 32P-UTP (internal); probe letters rebuilt from the primers and the genome.

Data set [1] addresses Shep E RRM mutant Y286A,F288A,F291A,V364A,F366A,R368A (UniProt Q8MSV2). The data set is described as follows: EMSA. The note with it: 10 ug tRNA competitor, 47 pmol protein, 10 pmol probe; EMSA: 10% glycerol, 20 mM NaCl, 60 mM KCl, 20 mM HEPES pH 7.5, 10 ug tRNA; probe heated 95 C 2 min and ice-cooled; 30 min on ice with protein; 6% GTG gel at 4 C; recombinant protein; protein details: His (N-terminal, pET101); label: 32P-UTP (internal); probe letters rebuilt from the primers and the genome. On the technique in general: A gel shift assay detects complexes by their altered migration in electrophoresis.

Construct, isoform or probe ends are uncertain for at least one entry. For some of these results: No signal at the amounts used counts as a negative.

Regarding “GGGAGACUCCGACGACGAGGAGAUUGCAACCACUUCAGCGGCGGCUGUCAAAAUGAAGCUGAAACUGAACAAAUCUCUGGCUAGUGCGCCCGCUACGCCCACGCAAUCAUCGUCGAAUGUGAGCAGCGGAGCGGCUACCACAUCCAAGAAGCAGACGCGUCGCAAGCGCUCCCAAAAGAAGUACACUAUUUCAGACGAUGACGACGAUGACAUGGACUAGCUACCGUUGGGAGUGAUCUUCAAGCGCGGAUCGUCGGAUGUCGAAGGCAUGGGCAAUUGAUUAUUAAUUAGUUUAAGUUUUACUUUCAAGGACGAUGCUUACCAAAACCCUAGCCUACGGGUUUUUUUAACCAUCUAACCUAUCAUGCUAUCACUUUUAUCUAUACUAAUUUUCUAGUUGUAGGUUCUCGAUUAAGUUUCCUAUUCAAUUAUUUUCGCACACACCAUUUAUUUCUCCC [brm 455 nt ssRNA fragment]”, the results for the binding result (with Shep E (wild type); in data set [1]) were “binds” and “no binding”, respectively.
The corresponding values for “GGGAGAGAAGCAAGUAGCAGGCGAGAAAAUGAACCGGAAACCGUAGAACUAGAACAAAAGAAUGGAAAGCAAACACGUAGUGAAGAAGCGAUCUAGAACUAAGUAAGCUGAUUAAGAUGCGCAAGCGAACAAGAAAUCGUGUCCUAGGCCCAAAAAAUGCAAAACAAAAUGGAUGGAUCGAUUACUCGGGAUUACUCAAGUUUUGAGCUUAGUGACGAAUCACUUGCAUGGGCAAUGGGCUGGUGUAGUCUAUAUGGAUUCUAUAGCUAUAUCAAAUACAUGAUGGGUCUUCAAAGAAUUAUCCCAGUUUAUAUUGCUUGUAAUUGCUUAUGGAUUACGCCGCCCAUUUCUGGGAAUAUCCAUUCAAUCCAUAGCAAUCGAUCCAUCCUAUUAUACAUAUAUAUAUUUAUAUAUUAUUAAUUCUCUCUUUUAAGUAGGUUCCGCUCCCCUUUGAAAAC [CG10555 470 nt ssRNA fragment]” are “binds” and “no binding”.
